According to the supplement of paper PMC7661543:
Differences between knockout arms are mostly noise.

Tested on: HCC-38
Assay: relative cell number vs DMSO control (72 h) (% of DMSO); higher = less growth inhibition (more cells)
Experimental: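 QMAP-Seq: a pool of 5 breast cancer cell lines (ZR-75-1, SKBR3, HCC-38, MDA-MB-231, BT-20), each carrying 12 doxycycline-inducible Cas9 sgRNA perturbations (11 knockouts plus non-targeting sgNT), was treated with compounds for 72 h at four 10-fold doses (10 nM-10 uM or 1 nM-1 uM range). Barcodes were amplified and sequenced, and cell number was interpolated from 293T spike-in standard curves. The result is expressed as % of the median of DMSO wells. Two biological replicates.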

COc1cc(-n2c(=S)[nH]c3ccccc3c2=O)c(Cl)cc1Cl [Mdivi1]
Settings | relative cell number
sgRNA knockout: sgATF3, 10 nM | 101
sgRNA knockout: sgATF3, 100 nM | 91.4
sgRNA knockout: sgATF3, 1000 nM | 95.8
sgRNA knockout: sgATF3, 10000 nM | 82.5
sgRNA knockout: sgATF4, 10 nM | 105
sgRNA knockout: sgATF4, 100 nM | 104
sgRNA knockout: sgATF4, 1000 nM | 94.4
sgRNA knockout: sgATF4, 10000 nM | 78.4
sgRNA knockout: sgATF6, 10 nM | 107
sgRNA knockout: sgATF6, 100 nM | 105
sgRNA knockout: sgATF6, 1000 nM | 105
sgRNA knockout: sgATF6, 10000 nM | 87.8
sgRNA knockout: sgATG7, 10 nM | 97.4
sgRNA knockout: sgATG7, 100 nM | 102
sgRNA knockout: sgATG7, 1000 nM | 102
sgRNA knockout: sgATG7, 10000 nM | 79.3
sgRNA knockout: sgERN1, 10 nM | 81.5
sgRNA knockout: sgERN1, 100 nM | 95.04
sgRNA knockout: sgERN1, 1000 nM | 103
sgRNA knockout: sgERN1, 10000 nM | 80.3
sgRNA knockout: sgHSF1, 10 nM | 78.1
sgRNA knockout: sgHSF1, 100 nM | 106
sgRNA knockout: sgHSF1, 1000 nM | 97.1
sgRNA knockout: sgHSF1, 10000 nM | 84.09
sgRNA knockout: sgHSF2, 10 nM | 93.6
sgRNA knockout: sgHSF2, 100 nM | 101.7
sgRNA knockout: sgHSF2, 1000 nM | 98.2
sgRNA knockout: sgHSF2, 10000 nM | 83.8
sgRNA knockout: sgKEAP1, 10 nM | 106
sgRNA knockout: sgKEAP1, 100 nM | 101
sgRNA knockout: sgKEAP1, 1000 nM | 86.1
sgRNA knockout: sgKEAP1, 10000 nM | 80.4
sgRNA knockout: sgNFE2L2, 10 nM | 107
sgRNA knockout: sgNFE2L2, 100 nM | 93.8
sgRNA knockout: sgNFE2L2, 1000 nM | 102
sgRNA knockout: sgNFE2L2, 10000 nM | 77.5
sgRNA knockout: sgSLC35F2, 10 nM | 96.89
sgRNA knockout: sgSLC35F2, 100 nM | 98.8
sgRNA knockout: sgSLC35F2, 1000 nM | 102
sgRNA knockout: sgSLC35F2, 10000 nM | 81.5
sgRNA knockout: sgXBP1, 10 nM | 105
sgRNA knockout: sgXBP1, 100 nM | 91.7
sgRNA knockout: sgXBP1, 1000 nM | 95.9
sgRNA knockout: sgXBP1, 10000 nM | 82.6

O=C1c2c(O)ccc(O)c2C(=O)c2c(NCCNCCO)ccc(NCCNCCO)c21 [Mitoxantrone]
Settings | relative cell number
sgRNA knockout: sgATF3, 10 nM | 34.3
sgRNA knockout: sgATF3, 100 nM | 27.6
sgRNA knockout: sgATF3, 1000 nM | 9.76
sgRNA knockout: sgATF3, 10000 nM | 7.51
sgRNA knockout: sgATF4, 10 nM | 36.8
sgRNA knockout: sgATF4, 100 nM | 30.1
sgRNA knockout: sgATF4, 1000 nM | 9.3
sgRNA knockout: sgATF4, 10000 nM | 6.75
sgRNA knockout: sgATF6, 10 nM | 39.2
sgRNA knockout: sgATF6, 100 nM | 25.8
sgRNA knockout: sgATF6, 1000 nM | 9.11
sgRNA knockout: sgATF6, 10000 nM | 9.24
sgRNA knockout: sgATG7, 10 nM | 39.5
sgRNA knockout: sgATG7, 100 nM | 31.96
sgRNA knockout: sgATG7, 1000 nM | 9.06
sgRNA knockout: sgATG7, 10000 nM | 7.85
sgRNA knockout: sgERN1, 10 nM | 33.5
sgRNA knockout: sgERN1, 100 nM | 29.588
sgRNA knockout: sgERN1, 1000 nM | 10
sgRNA knockout: sgERN1, 10000 nM | 7.25
sgRNA knockout: sgHSF1, 10 nM | 50.3
sgRNA knockout: sgHSF1, 100 nM | 28.7
sgRNA knockout: sgHSF1, 1000 nM | 5.68
sgRNA knockout: sgHSF1, 10000 nM | 9.98
sgRNA knockout: sgHSF2, 10 nM | 39.8
sgRNA knockout: sgHSF2, 100 nM | 28.9
sgRNA knockout: sgHSF2, 1000 nM | 10.3
sgRNA knockout: sgHSF2, 10000 nM | 8.52
sgRNA knockout: sgKEAP1, 10 nM | 43.88
sgRNA knockout: sgKEAP1, 100 nM | 27.8
sgRNA knockout: sgKEAP1, 1000 nM | 8.61
sgRNA knockout: sgKEAP1, 10000 nM | 8.22
sgRNA knockout: sgNFE2L2, 10 nM | 34.6
sgRNA knockout: sgNFE2L2, 100 nM | 31.6
sgRNA knockout: sgNFE2L2, 1000 nM | 9.27
sgRNA knockout: sgNFE2L2, 10000 nM | 7.216
sgRNA knockout: sgSLC35F2, 10 nM | 37.8
sgRNA knockout: sgSLC35F2, 100 nM | 31.6
sgRNA knockout: sgSLC35F2, 1000 nM | 8.3
sgRNA knockout: sgSLC35F2, 10000 nM | 6.34
sgRNA knockout: sgXBP1, 10 nM | 34.9
sgRNA knockout: sgXBP1, 100 nM | 32.2
sgRNA knockout: sgXBP1, 1000 nM | 9.27
sgRNA knockout: sgXBP1, 10000 nM | 7.03

CCNC(=O)c1noc(-c2cc(C(C)C)c(O)cc2O)c1-c1ccc(CN2CCOCC2)cc1 [NVPAUY922]
Settings | relative cell number
sgRNA knockout: sgATF3, 1 nM | 114
sgRNA knockout: sgATF3, 10 nM | 71.1
sgRNA knockout: sgATF3, 100 nM | 28.6
sgRNA knockout: sgATF3, 1000 nM | 28.3
sgRNA knockout: sgATF4, 1 nM | 117
sgRNA knockout: sgATF4, 10 nM | 68.2
sgRNA knockout: sgATF4, 100 nM | 30.6
sgRNA knockout: sgATF4, 1000 nM | 28.4
sgRNA knockout: sgATF6, 1 nM | 120
sgRNA knockout: sgATF6, 10 nM | 73.7
sgRNA knockout: sgATF6, 100 nM | 34.7
sgRNA knockout: sgATF6, 1000 nM | 30.9
sgRNA knockout: sgATG7, 1 nM | 117
sgRNA knockout: sgATG7, 10 nM | 66.3
sgRNA knockout: sgATG7, 100 nM | 30.6
sgRNA knockout: sgATG7, 1000 nM | 27.8
sgRNA knockout: sgERN1, 1 nM | 111
sgRNA knockout: sgERN1, 10 nM | 66.7
sgRNA knockout: sgERN1, 100 nM | 34.6
sgRNA knockout: sgERN1, 1000 nM | 30.2
sgRNA knockout: sgHSF1, 1 nM | 90.6
sgRNA knockout: sgHSF1, 10 nM | 53.4
sgRNA knockout: sgHSF1, 100 nM | 18.5
sgRNA knockout: sgHSF1, 1000 nM | 16.9
sgRNA knockout: sgHSF2, 1 nM | 122
sgRNA knockout: sgHSF2, 10 nM | 73.4
sgRNA knockout: sgHSF2, 100 nM | 32.8
sgRNA knockout: sgHSF2, 1000 nM | 28.6
sgRNA knockout: sgKEAP1, 1 nM | 134
sgRNA knockout: sgKEAP1, 10 nM | 96.2
sgRNA knockout: sgKEAP1, 100 nM | 42
sgRNA knockout: sgKEAP1, 1000 nM | 29.4
sgRNA knockout: sgNFE2L2, 1 nM | 111
sgRNA knockout: sgNFE2L2, 10 nM | 61
sgRNA knockout: sgNFE2L2, 100 nM | 29.7
sgRNA knockout: sgNFE2L2, 1000 nM | 30.4
sgRNA knockout: sgSLC35F2, 1 nM | 105
sgRNA knockout: sgSLC35F2, 10 nM | 73.2
sgRNA knockout: sgSLC35F2, 100 nM | 33.5
sgRNA knockout: sgSLC35F2, 1000 nM | 29
sgRNA knockout: sgXBP1, 1 nM | 121
sgRNA knockout: sgXBP1, 10 nM | 67.2
sgRNA knockout: sgXBP1, 100 nM | 32.4
sgRNA knockout: sgXBP1, 1000 nM | 28.5
